Literature values as cited in patent US10369131B2, “Ultrapure tetrahydrocannabinol-11-oic acids” (Corbus Pharmaceuticals, Inc., priority 2013, dated 2019).
Some entries share one result that the patent states for a list of compounds. For at least one compound, name, drawing or mass did not settle the structure.

Settings: rat, at peak pharmacodynamic time points; cited from earlier work

Cc1c(C(=O)c2cccc3ccccc23)c2cccc3c2n1[C@H](CN1CCOCC1)CO3 [WIN55,212-2]
brain levels relative to those seen in the plasma: 100-190%
